The source of these data is PubChem BioAssay AID248 (DTP/NCI, 2004).

The list shows only some results of the screen, not a fair sample: it gathers tests that were run many times, whatever their T/C, doses with no T/C, and many T/C values between a quarter and a half above the control. Further doses and runs are listed elsewhere. T/C gives the treated animals as a percentage of the vehicle group. Some entries give survivors of the animals treated and no T/C: the source holds a T/C of zero for them, seemingly a mark for toxic or unscored doses. Some survivor counts are full or nearly so, which does not show that the dose was tolerated: survival well below the control is almost never listed, so the zero probably covers shortened survival too. Counts of survivors are from the toxicity check (mostly the fifth day) where no day follows; animals may have died later. Schedules are NCI's codes, read here as Q, the interval in days (D) or hours (H), X, the number of doses. Some molecules as drawn cover several salts, stereoisomers or complexes of the source; a dose is that of the sample tested. Some entries were tested several times; the values are given in rising order. Where survival is the endpoint, this PubChem deposit counts one and a half times the control or more as active, and values a quarter to a half above the control carry no call in these data; other NCI protocols may use other cut-offs.

The experiment deals with L1210 leukemia ip in BDF1 mice, survival T/C. In words: NCI In Vivo Anticancer Drug Screen. Data for tumor model L1210 Leukemia (intraperitoneal) in B6D2F1 (BDF1) mice. The note with it: T/C endpoint: mean survival time, higher T/C = longer survival.
The mark [1] stands for this setting: dose: 150.0 mg/kg/injection, schedule: Q01DX001 (ip), vehicle: saline.
Setting [2] is: dose: 300.0 mg/kg/injection, schedule: Q01DX001 (ip), vehicle: saline.
The mark [3] stands for this setting: dose: 200.0 mg/kg/injection, schedule: Q04DX003 (ip), vehicle: saline with Tween-80.
Where [4] appears, read: dose: 400.0 mg/kg/injection, schedule: Q04DX003 (ip), vehicle: saline with Tween-80.
The mark [5] stands for this setting: dose: 200.0 mg/kg/injection, schedule: Q01DX009 (ip), vehicle: Klucel (hydroxypropylcellulose) (HPC).
Setting [6] is: dose: 400.0 mg/kg/injection, schedule: Q01DX001 (ip), vehicle: saline.
Setting [7] is: dose: 200.0 mg/kg/injection, schedule: Q04DX003 (ip), vehicle: saline.
Setting [8] is: dose: 400.0 mg/kg/injection, schedule: Q04DX003 (ip), vehicle: saline.

For the molecule `O=C(OCCC[P+](c1ccccc1)(c1ccccc1)c1ccccc1)c1ccccc1`, the survivor count (dose: 100.0 mg/kg/injection, schedule: Q01DX001 (ip), vehicle: saline with Tween-80) was 1 of 6; the survivor count (dose: 200.0 mg/kg/injection, schedule: Q01DX001 (ip), vehicle: saline with Tween-80) is on record as 0 of 6; the survivor count (dose: 400.0 mg/kg/injection, schedule: Q01DX001 (ip), vehicle: saline with Tween-80) is recorded as 0 of 6.
For the molecule `CCCCCCCCC(C)NCCOC(=O)c1ccc(N)cc1` (centres undefined), the survivor count by setting is: (dose: 75.0 mg/kg/injection, schedule: Q01DX001 (ip), vehicle: other) 6 of 6; (dose: 150.0 mg/kg/injection, schedule: Q01DX001 (ip), vehicle: other) 3 of 6; (dose: 300.0 mg/kg/injection, schedule: Q01DX001 (ip), vehicle: other) 0 of 6.
For `CC(=O)Oc1ccc(N2C(=O)C=CC2=O)cc1` (tested in a mixture with another compound), the survivor count (dose: 100.0 mg/kg/injection, schedule: Q04DX003 (ip), vehicle: other) is recorded as 6 of 6; the survivor count (dose: 200.0 mg/kg/injection, schedule: Q04DX003 (ip), vehicle: other) was 3 of 6 and 6 of 6; the survivor count (dose: 400.0 mg/kg/injection, schedule: Q04DX003 (ip), vehicle: other) is 0 of 6.
On to `CC1CCC/C(=N/Nc2ccc3ccccc3n2)C1` (centres undefined), for which the survivor count under setting [1] is reported as 0 of 6 and the survivor count under setting [2] was 0 of 6.
On to `S=C(Cc1ccccc1)N1CCCCC1`, for which the survivor count (dose: 400.0 mg/kg/injection, schedule: Q04DX003 (ip), vehicle: Klucel (hydroxypropylcellulose) (HPC)) is 2 of 6.
Turning to `Cc1ccc([N+](=O)[O-])c(P(=O)(O)O)c1`, the survivor count runs as follows: under setting [3], 3 of 6; under setting [4], 3 of 6.
As for `Cc1nc(C#N)c(N)o1`, the survivor count by setting is: (dose: 40.0 mg/kg/injection, schedule: Q01DX001 (ip), vehicle: saline) 0 of 6; (dose: 75.0 mg/kg/injection, schedule: Q01DX001 (ip), vehicle: saline) 0 of 6; (dose: 80.0 mg/kg/injection, schedule: Q01DX001 (ip), vehicle: saline) 0 of 6; under setting [1], 0 of 6; under setting [2], 0 of 6.
Consider `CC[n+]1ccc(/C=C\c2c(Cl)cccc2Cl)cc1`, for which the survivor count is listed as 0 of 6 (dose: 50.0 mg/kg/injection, schedule: Q01DX009 (ip), vehicle: Klucel (hydroxypropylcellulose) (HPC)); 0 of 6 (dose: 100.0 mg/kg/injection, schedule: Q01DX009 (ip), vehicle: Klucel (hydroxypropylcellulose) (HPC)); 0 of 6 under setting [5]; 0 of 6 (dose: 400.0 mg/kg/injection, schedule: Q01DX009 (ip), vehicle: Klucel (hydroxypropylcellulose) (HPC)).
Consider `O=C1c2ccccc2C(=O)c2c(Nc3ccc(S(=O)(=O)N(CCO)CCO)cc3)ccc(O)c21`, for which the survivor count under setting [6] is on record as 1 of 6.
Consider `CN(C)C(=O)c1ccc[n+](CC(=O)Nc2ccc(Cl)cc2)c1`, for which the survivor count under setting [7] is given as 3 of 6 and the survivor count under setting [8] is reported as 0 of 6.
As for `CSC(=S)NNC(=O)c1ccc([N+](=O)[O-])cc1`, the survivor count is reported as 6 of 6 (dose: 25.0 mg/kg/injection, schedule: Q04DX003 (ip), vehicle: saline sonified); 3 of 6 (dose: 100.0 mg/kg/injection, schedule: Q04DX003 (ip), vehicle: saline); 2 of 6 under setting [7]; 0 of 6 under setting [8].
In the case of `O=C1C=C(O)C(c2ccccc2)=CC1=O`, the survivor count (dose: 400.0 mg/kg/injection, schedule: Q01DX001 (ip), vehicle: water) is given as 0 of 6.
Take `Cc1cc(I)ccc1NC(=S)Nc1ccccc1F`: the survivor count under setting [4] is on record as 3 of 6.
Turning to `O=C(NC1CCC(NC(=O)N2CC2)CC1)N1CC1` (centres undefined), the T/C was 130 % of control (dose: 0.25 mg/kg/injection, schedule: Q01DX009 (ip), vehicle: carboxymethylcellulose (CMC)); 129 % of control (dose: 0.44 mg/kg/injection, schedule: Q01DX009 (ip), vehicle: carboxymethylcellulose (CMC)); 142 % of control (dose: 0.5 mg/kg/injection, schedule: Q01DX009 (ip), vehicle: carboxymethylcellulose (CMC)); 146 % of control (dose: 0.66 mg/kg/injection, schedule: Q01DX009 (ip), vehicle: carboxymethylcellulose (CMC)); 139 and 145 % of control (dose: 3.0 mg/kg/injection, schedule: Q01DX001 (ip), vehicle: carboxymethylcellulose (CMC)); 138 % of control (dose: 4.5 mg/kg/injection, schedule: Q01DX001 (ip), vehicle: carboxymethylcellulose (CMC)). Besides, the survivor count runs as follows: (dose: 3.0 mg/kg/injection, schedule: Q01DX009 (ip), vehicle: carboxymethylcellulose (CMC)) 6 of 6; (dose: 4.5 mg/kg/injection, schedule: Q01DX009 (ip), vehicle: carboxymethylcellulose (CMC)) 6 of 6; (dose: 6.0 mg/kg/injection, schedule: Q01DX001 (ip), vehicle: carboxymethylcellulose (CMC)) 4 of 4; (dose: 12.0 mg/kg/injection, schedule: Q01DX001 (ip), vehicle: carboxymethylcellulose (CMC)) 1 of 4; (dose: 100.0 mg/kg/injection, schedule: Q01DX001 (ip), vehicle: carboxymethylcellulose (CMC)) 1 of 4; (dose: 200.0 mg/kg/injection, schedule: Q01DX001 (ip), vehicle: carboxymethylcellulose (CMC)) 0 of 4. Also, the survivor count (dose: 400.0 mg/kg/injection, schedule: Q01DX001 (ip), vehicle: carboxymethylcellulose (CMC)) was 0 of 4.
With `Cc1cc(C)cc(OC(=O)Nc2ccccc2C)c1`, the survivor count (dose: 400.0 mg/kg/injection, schedule: Q04DX002 (ip), vehicle: saline with Tween-80) is 1 of 3.
As for `CN/N=C/c1ccc([N+](=O)[O-])cc1`, for the setting “dose: 400.0 mg/kg/injection, schedule: Q04DX002 (ip), vehicle: DMSO”, the survivor count was 0 of 3.
Consider `Nc1cc(Cl)cc(Cl)c1C(=O)O`, for which the survivor count runs as follows: (dose: 200.0 mg/kg/injection, schedule: Q01DX009 (ip), vehicle: other) 2 of 6; under setting [8], 0 of 6.
Turning to `CCCSP(C(C)C)C(C)C`, the survivor count by setting is: (dose: 100.0 mg/kg/injection, schedule: Q04DX003 (ip), vehicle: saline with Tween-80) 0 of 6; under setting [3], 0 of 6; under setting [4], 0 of 6.
As for `C[N+]1(Cc2ccccc2)CCC(=O)CC1`, the survivor count under setting [6] is recorded as 0 of 4.
For the molecule `CN(Cc1ccc(Cl)cc1)C(=O)Nc1cccc(C(F)(F)F)c1`, under setting [5], the survivor count was 6 of 6.
`c1cncc(-c2nnc(-c3cccnc3)o2)c1`: the survivor count by setting is: (dose: 25.0 mg/kg/injection, schedule: Q04DX002 (ip), vehicle: saline with Tween-80) 3 of 3; (dose: 100.0 mg/kg/injection, schedule: Q04DX002 (ip), vehicle: saline with Tween-80) 1 of 3.
As to `COc1ccccc1NC(=O)Nc1ccc(S(N)(=O)=O)cc1`, the survivor count (dose: 200.0 mg/kg/injection, schedule: Q04DX002 (ip), vehicle: saline with Tween-80) is given as 3 of 3.
For `CC1CNC2C(C)C3C(CC4C5CCC6CC(N=Cc7ccccc7)C(O)CC6(C)C5CCC43C)OC2(O)C1` (centres undefined), the survivor count (dose: 200.0 mg/kg/injection, schedule: Q01DX001 (ip), vehicle: Klucel (hydroxypropylcellulose) (HPC)) was 3 of 3.
`O=C(Nc1ccccc1)c1ccc2c(c1)C(=O)N(c1ccccc1)C2=O`: the survivor count (dose: 400.0 mg/kg/injection, schedule: Q04DX002 (ip), vehicle: saline) is given as 3 of 3.
